US20210380977, “MYOCARDIAL ENHANCER RNA AND METHODS OF USE” (THE TRUSTEES OF INDIANA UNIVERSITY, published 2021)
For at least one entry, the source does not settle the construct or the ends of the probe. Negatives hold for the conditions tested. Tags and fusion partners may be left off the protein sequences shown.

Molecular target: T1, CTCF (UniProt P49711)
T1 sequence (looked up, limits assumed): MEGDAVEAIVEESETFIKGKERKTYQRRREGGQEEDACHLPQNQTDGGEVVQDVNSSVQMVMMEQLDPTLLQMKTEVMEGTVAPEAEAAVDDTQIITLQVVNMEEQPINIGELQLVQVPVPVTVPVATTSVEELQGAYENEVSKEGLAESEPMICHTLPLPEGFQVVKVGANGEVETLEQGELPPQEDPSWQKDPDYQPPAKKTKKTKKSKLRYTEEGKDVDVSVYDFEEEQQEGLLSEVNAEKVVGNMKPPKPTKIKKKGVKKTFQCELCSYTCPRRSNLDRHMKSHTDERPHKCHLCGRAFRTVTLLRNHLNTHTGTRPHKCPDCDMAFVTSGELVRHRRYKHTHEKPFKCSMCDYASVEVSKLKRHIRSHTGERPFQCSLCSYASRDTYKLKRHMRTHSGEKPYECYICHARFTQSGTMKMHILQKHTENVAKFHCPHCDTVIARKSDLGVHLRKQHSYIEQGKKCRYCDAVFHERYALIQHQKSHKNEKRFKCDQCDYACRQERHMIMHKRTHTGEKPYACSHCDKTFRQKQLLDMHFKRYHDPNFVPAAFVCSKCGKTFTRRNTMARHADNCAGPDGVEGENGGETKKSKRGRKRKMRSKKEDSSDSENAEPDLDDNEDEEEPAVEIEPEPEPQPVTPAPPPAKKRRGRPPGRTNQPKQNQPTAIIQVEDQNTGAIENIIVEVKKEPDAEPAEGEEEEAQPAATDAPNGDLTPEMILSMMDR
Test: EMSA
Conditions: purified recombinant protein; protein details: Abnova H00010664-P01; label: 5' biotin on the DNA strand; DNA:RNA hybrid; variant of eDNA CTCF site dsDNA probe

Sequence: GGTCAGCCACACAACAGAGGGGGTGGCACAGCTCTTGGGA [Uhrt-eDNA hybrid CTCF site probe]
- binding result: no binding
